# In paper PMC4311138:
# By UniProt entry, the sequences of proteins in these tests, tags left out.
# UniProt P61077: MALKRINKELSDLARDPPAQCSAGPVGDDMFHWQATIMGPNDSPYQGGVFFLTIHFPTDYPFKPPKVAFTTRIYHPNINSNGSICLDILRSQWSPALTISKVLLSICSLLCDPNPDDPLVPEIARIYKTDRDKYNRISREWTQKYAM
# UniProt P61081: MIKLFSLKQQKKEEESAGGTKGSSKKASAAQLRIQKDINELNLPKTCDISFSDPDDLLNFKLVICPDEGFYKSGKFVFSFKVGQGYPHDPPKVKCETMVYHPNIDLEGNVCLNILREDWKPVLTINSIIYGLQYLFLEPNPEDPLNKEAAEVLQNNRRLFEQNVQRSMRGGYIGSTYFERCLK
# UniProt P61088: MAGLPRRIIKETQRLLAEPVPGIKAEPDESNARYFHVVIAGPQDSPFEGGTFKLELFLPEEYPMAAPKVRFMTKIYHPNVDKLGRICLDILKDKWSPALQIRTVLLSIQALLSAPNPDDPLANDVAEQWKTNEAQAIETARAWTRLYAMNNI
# These are yes or no findings as the source states them, for the method shown. Some entries that bind do so weakly or less than the wild type. Where a sequence is shown, tags or fusion partners need not be part of it.
# Biological target: T1, LexA-axotrophin RING-variant domain fusion protein (pEG-axoCT, aa 552–682) (human) (UniProt Q9H992)
# T1 sequence: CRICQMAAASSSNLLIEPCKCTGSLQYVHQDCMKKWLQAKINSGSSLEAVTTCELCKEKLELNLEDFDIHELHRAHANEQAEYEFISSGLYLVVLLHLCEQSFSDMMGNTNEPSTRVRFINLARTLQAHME
# Experiment: two-hybrid; DupLEX (OriGene), nuclear; LexA fusion (pEG) as bait, activation-domain fusion (pJG) as prey; growth on leucine-deficient medium
row,binding,Substance
1,binds,E2 enzyme UbcH5c (from UniProt P61077 1-147)
2,binds weakly,neddylation E2 enzyme Ubc12 (from UniProt P61081 1-183)
3,binds,"protein phosphatase 2B (calcineurin) catalytic subunit, isoform PP2Bb (from UniProt P16298 1-524) (enzyme)"
4,binds weakly,ubiquitin chain elongating enzyme Ubc13 (from UniProt P61088 1-152)
